Source: PubChem BioAssay AID1347076 (National Center for Advancing Translational Sciences (NCATS), 2019)
Out of some 400,000 compounds screened, about 13,000 (3.2%) were called active. Inconclusive results, whose numbers are uncertain, are shown with a selection of clear calls. Calls come from the whole dose curve; as a rule, active = well fitted cell-killing curve with a large enough effect; inconclusive = small, poorly fitted or top-dose-only effect, or effect the other way; inactive = flat fitted curve, though single readings scatter. Where the call is inconclusive, the potency comes from a doubtful curve fit.

Experiment: qHTS assay for MDR1-selective chemotherapeutics: Primary screen using the drug-selected MDR subline cells KB-V1; note: nearly all actives have a fitted effect of over 60% in size
Conditions: KB-V1 MDR cells viability, CellTiter-Glo, 72 h; series mostly up to 46.1 µM
Outline: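 qHTS viability screen in drug-selected KB-V1 MDR cells: 72 h compound treatment at 37 degrees C, ATP luminescence end point.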
Potency is the fitted concentration of half-maximal effect.

Row | Compound | Potency
1 | CC(C)[C@H]1COCCS(=O)(=O)N1Cc1ccccc1-c1ccccc1 | inactive
2 | NC(=O)COc1ccc(S(=O)(=O)N2CCCC2)cc1 | inconclusive: 16.4 µM [rising, partial curve]
3 | CC(C)(C)CC(C)(C)NC(=S)NC1CCN(Cc2ccccc2)CC1 | active: 5.17 µM
4 | COc1ccc(-c2nc3ccccc3[nH]2)cc1 | inconclusive: 18.4 µM [cytotoxic, single point]
5 | Cc1ccc(C)c(N(C)C(=O)CCNC(=O)Cn2cnc3ccccc3c2=O)c1 | inactive
6 | CCN(CC)S(=O)(=O)c1ccc(NC(=O)C2CCCN(C(=O)c3ccc(Cl)cc3)C2)cc1 (stereo not given) | inconclusive: 6.51 µM [cytotoxic, partial curve]
7 | O=C(NC1CC1)c1cc2c(F)cccc2s1 | inconclusive: 32.6 µM [cytotoxic, single point]
8 | COc1cc2nc(N3CCCN(C)CC3)nc(NC3CCN(Cc4ccccc4)CC3)c2cc1OC | inconclusive: 29.1 µM [cytotoxic, partial curve, poor fit]
9 | O=c1[nH]cnc(O)c1C(c1cccc([N+](=O)[O-])c1)c1c(O)nc[nH]c1=O | inactive
10 | CN1CCN(S(=O)(=O)c2ccc(Br)c3ccccc23)CC1 | inactive
11 | C[C@H]1CC[C@@]2(O[C@H](CCO)C[C@@H](O)[C@@H]2O)O1 | inconclusive: 4.11 µM [rising, full curve, poor fit]
12 | Cc1ccc(/C=C/C(=O)NCCCN2CCN(CCCNC(=O)/C=C/c3ccc(C)o3)CC2)o1 | inconclusive: 7.31 µM [rising, partial curve]
13 | COc1cccc(/C=C2\CCC(C3CCCC3)C2=O)c1 (stereo not given) | inactive
14 | Cc1cc(C)nc(SCC(=O)NN=Cc2ccc(C)o2)n1 | inconclusive: 23.1 µM [rising, single point]
15 | O=C(CN1CCC(C(=O)c2ccc(F)cc2)CC1)Nc1ccccc1Cl | inconclusive: 25.9 µM [cytotoxic, single point]
16 | O=S(=O)(c1cccc2cccnc12)n1cnc2ccccc21 | inconclusive: 20.6 µM [cytotoxic, partial curve]
17 | Cc1c(-c2ccc(Cl)cc2)c(=O)oc2c(CN3CCN(C)CC3)c(O)ccc12 | inactive
18 | COc1ccc(Nc2nc(-c3ccccc3O)nc3ccccc23)cc1 | inconclusive: 9.2 µM [cytotoxic, single point]
19 | Cc1ccc(C2(C(F)(F)F)NC(=O)N3CCN=C3S2)cc1 (stereo not given) | inconclusive: 23.1 µM [cytotoxic, single point]
20 | CCOc1cc(N2CCOCC2)c(OCC)cc1NC(=O)CN1C(=O)NC(CC)(c2ccc(F)cc2)C1=O (stereo not given) | inconclusive: 20.6 µM [cytotoxic, partial curve, poor fit]
21 | CCC1(C(=O)NC(=Nc2ccccc2)Nc2ccccc2)CCOC1=O (stereo not given) | inactive
22 | CC1(C(=O)Nc2nccs2)CCN1C(=O)C1(c2ccccc2)CC1 (stereo not given) | inconclusive: 16.4 µM [cytotoxic, single point]
23 | Cc1ccc(S(=O)(=O)NCc2ccc(C(=O)NCCCN3CCC(Cc4ccccc4)CC3)cc2)cc1 | inactive
24 | CC(=O)Oc1ccc2c(=O)c(Oc3ccccc3)coc2c1OC(C)=O | active: 13 µM
25 | Cc1cccc(C)c1-n1nnnc1C1(C)CCC(=O)N1CCCN1CCOCC1 (stereo not given) | inactive

Of the compounds above, these have sulfur:
Row | Compound | Potency
1 | CC(C)[C@H]1COCCS(=O)(=O)N1Cc1ccccc1-c1ccccc1 | inactive
2 | NC(=O)COc1ccc(S(=O)(=O)N2CCCC2)cc1 | inconclusive: 16.4 µM [rising, partial curve]
3 | CC(C)(C)CC(C)(C)NC(=S)NC1CCN(Cc2ccccc2)CC1 | active: 5.17 µM
6 | CCN(CC)S(=O)(=O)c1ccc(NC(=O)C2CCCN(C(=O)c3ccc(Cl)cc3)C2)cc1 (stereo not given) | inconclusive: 6.51 µM [cytotoxic, partial curve]
7 | O=C(NC1CC1)c1cc2c(F)cccc2s1 | inconclusive: 32.6 µM [cytotoxic, single point]
10 | CN1CCN(S(=O)(=O)c2ccc(Br)c3ccccc23)CC1 | inactive
14 | Cc1cc(C)nc(SCC(=O)NN=Cc2ccc(C)o2)n1 | inconclusive: 23.1 µM [rising, single point]
16 | O=S(=O)(c1cccc2cccnc12)n1cnc2ccccc21 | inconclusive: 20.6 µM [cytotoxic, partial curve]
19 | Cc1ccc(C2(C(F)(F)F)NC(=O)N3CCN=C3S2)cc1 (stereo not given) | inconclusive: 23.1 µM [cytotoxic, single point]
22 | CC1(C(=O)Nc2nccs2)CCN1C(=O)C1(c2ccccc2)CC1 (stereo not given) | inconclusive: 16.4 µM [cytotoxic, single point]
23 | Cc1ccc(S(=O)(=O)NCc2ccc(C(=O)NCCCN3CCC(Cc4ccccc4)CC3)cc2)cc1 | inactive

Further structures.

Row | Compound | Potency
26 | N#CCCn1cc(/C=N/O)c(-c2ccc(F)cc2)n1 | inconclusive: 29.1 µM [rising, single point]
27 | CC(Oc1ccc(Br)cc1)C(=O)Nc1nc(-c2ccccn2)cs1 (stereo not given) | inconclusive: 5.8 µM [cytotoxic, full curve]
28 | O=c1c2cc([N+](=O)[O-])ccc2nc2n1CCC2 | inconclusive: 18.4 µM [rising, single point]
29 | CCOC(=O)C1CCCN(C(=O)c2cc3c(Cl)nc4ccccc4c3s2)C1 (stereo not given) | inactive
30 | CC1CCc2c(sc3nc(-c4cc5ccccc5oc4=O)nc(Cl)c23)C1 (stereo not given) | inconclusive: 18.4 µM [rising, single point]
31 | COc1cc2c(cc1OC)CN(C(=O)c1ccc3[nH]c(C)c(C)c3c1)CC2 | inconclusive: 25.9 µM [cytotoxic, single point]
32 | Cc1noc(C)c1C1(O)CCCCCCCCCCC1 | inconclusive: 16.4 µM [cytotoxic, single point]
33 | COc1ccc(C(C[N+](=O)[O-])c2c(C)[nH]c3ccccc23)cc1OC (stereo not given) | inconclusive: 11.6 µM [cytotoxic, partial curve]
34 | c1ccc(N=NC2=NN(c3ccccc3)CS2)cc1 | inactive
35 | Oc1cccc(/C=N/N(Cc2ccccc2)c2ccccc2)c1 | inconclusive: 20.6 µM [cytotoxic, single point]
36 | COc1ccc2c(c1)c(=O)oc1cc(OCC(=O)NC3CC3)ccc12 | inactive
37 | CCOc1ccc(C2c3c(-c4ccccc4O)n[nH]c3C(=O)N2Cc2cccnc2)cc1OC (stereo not given) | inconclusive: 13 µM [rising, partial curve, poor fit]
38 | COCCOC(=O)c1c(NC(=O)COC(=O)c2ccc(C)o2)sc(C(N)=O)c1C | inactive
39 | CN(C)S(=O)(=O)N(CC(=O)N1CCN(c2ccccc2)CC1)c1ccccc1 | inactive
40 | COCCNC(=O)CN(C(=O)Cn1nnc2ccccc21)c1ccc(C)c(F)c1 | inconclusive: 29.1 µM [cytotoxic, partial curve, poor fit]
41 | O=C(/C=C/[C@H]1O[C@@H](n2ccc(=O)[nH]c2=O)[C@H](O)[C@@H]1O)NCc1cccnc1 | inactive
42 | CC(NC(=O)c1ccccc1Br)C1CC2CCC1C2 (stereo not given) | inactive
43 | CCOC(=O)N1CCN(C(=O)Cn2nc(-c3ccc(Cl)cc3)ccc2=O)CC1 | inconclusive: 29.1 µM [cytotoxic, single point]
44 | CCOC(=O)C(C)Oc1cccc2c(=O)n(CC(=O)NCc3ccc4c(c3)OCO4)ccc12 (stereo not given) | active: 7.31 µM
45 | CC12CCC(=O)N1C(C(=O)N1CCN(c3ccc([N+](=O)[O-])cc3)CC1)CS2 (stereo not given) | active: 18.4 µM
46 | CC/C(=N/NC(=O)c1ccc(Br)o1)c1ccc(Cl)cc1 | active: 14.6 µM
47 | C=CCN(C(=O)Nc1ccc(OC)cc1)c1nnc(-c2ccncc2)s1 | inactive
48 | COC(=O)c1cccc(NC(=O)c2cc3sccc3n2C)c1 | active: 9.2 µM
49 | CCc1noc(C)c1C(=O)Nc1ccc(C)c(S(=O)(=O)N2CCCCCC2)c1 | active: 7.31 µM
50 | CCCCn1c(N)c(N(CCC(C)C)C(=O)c2ccc([N+](=O)[O-])s2)c(=O)[nH]c1=O | inactive

Some of the entries so far, as tab-separated lines.
Row	Compound	Potency
47	C=CCN(C(=O)Nc1ccc(OC)cc1)c1nnc(-c2ccncc2)s1	inactive
48	COC(=O)c1cccc(NC(=O)c2cc3sccc3n2C)c1	active: 9.2 µM

Following part.

Row | Compound | Potency
51 | CNc1ncc(C(=O)c2ccc(-c3ccccc3)cc2)s1 | inconclusive: 7.31 µM [cytotoxic, partial curve]
52 | Cc1scc(C(=O)N/N=C/c2ccsc2)c1C | inconclusive: 29.1 µM [cytotoxic, single point]
53 | CN(C)c1ccc(C(=O)N/N=C/c2cc(Br)cc(Br)c2O)cc1 | inconclusive: 20.6 µM [cytotoxic, single point]
54 | O=C(CN1CCN(S(=O)(=O)c2ccc(Cl)s2)CC1)NCc1ccc(Cl)cc1 | active: 3.66 µM
55 | C=CCn1c(N)c(C(=O)Nc2ccc(C)cc2)sc1=S | active: 18.4 µM
56 | CCC(CC)NC(=O)Cc1ccccc1[N+](=O)[O-] | inactive
57 | Cc1ccc2nc(-c3ccccn3)c(N)n2c1 | inconclusive: 29.1 µM [cytotoxic, single point]
58 | COC(=O)[C@]12CCCCC=C1N(Cc1ccc(Cl)cc1Cl)C(=O)[C@H](CC(=O)N1CCCC1)C2 | inactive
59 | Cc1cccc2cc(C#N)c(SCC(=O)N3CCC(C)CC3)nc12 | inconclusive: 6.51 µM [cytotoxic, partial curve]
60 | Cc1ccccc1-c1nc(CS(=O)CC(=O)NCCCN(C)c2ccccc2)c(C)o1 (stereo not given) | inconclusive: 18.4 µM [cytotoxic, partial curve]
61 | Cc1ccc(-c2nnc(-c3ccccc3)c(N3CCOCC3)n2)cc1 | active: 5.8 µM
62 | CCOC(=O)C(C)Oc1cccc2c(=O)n(CC(=O)N3CCCc4ccccc43)ccc12 (stereo not given) | inactive
63 | CSc1ccc(/C=N/NC(=O)c2cccc(Cl)c2)cc1 | inconclusive: 18.4 µM [cytotoxic, single point]
64 | COc1ccc(S(=O)(=O)N2CCC(C(=O)Oc3cccc(C)c3)CC2)cc1OC | inconclusive: 29.1 µM [rising, single point]
65 | COc1cccc(NC(=O)c2oc3ccccc3c2NC(C)=O)c1 | inconclusive: 5.17 µM [cytotoxic, full curve]
66 | O=C(COC(=O)CCC1CCCC1)Nc1ccc(Cl)cc1F | inactive
67 | COc1ccc(CC(Cc2ccc(OC)c(OC)c2)NC=O)cc1OC | inactive
68 | O=C(Nc1nnc(CCN2CCCCC2)s1)c1ccc(Br)cc1 | inconclusive: 25.9 µM [cytotoxic, partial curve, poor fit]
69 | COc1ccccc1[C@H]1C(c2ccccc2)=NN(c2ccccc2)[C@@H]1CO | inactive
70 | COc1ccc(C2=NN(C(=O)COc3ncnc4ccccc34)C(c3ccco3)C2)cc1 (stereo not given) | inactive
71 | CCN(CC(=O)Nc1ccc2c(c1)OCO2)Cc1nc2ccccc2c(=O)[nH]1 | inactive
72 | Cc1cccc(NC(=O)CSc2ncc3c(n2)-c2cc(Cl)ccc2N(C)S3(=O)=O)c1C | inconclusive: 5.17 µM [cytotoxic, partial curve]
73 | CCOC(=O)C1CCN(CC(=O)c2c(C)[nH]c3cc(C)ccc23)CC1 | inactive
74 | O=C(Nc1ccc2nc(-c3ccc(Br)o3)[nH]c2c1)c1ccco1 | inconclusive: 20.6 µM [cytotoxic, single point]
75 | CCc1ccc(C(=O)/C=C/NCc2ccc(F)cc2)cc1 | inconclusive: 20.6 µM [cytotoxic, single point]
